We go through one substance from publication doi:10.1101/2023.02.20.529182.

These are yes or no findings as the source states them, for the method shown. Binding seen in cells or lysates may run through a third protein. A result given as binding can be weak or reduced; the word gives no strength.

The target of the test is DjlA variant with a C-terminal HA-tag (DjlA-HA) (C. crescentus). The experiment in a line: co-IP.

With TipR (from UniProt A0A0H3C6G9), the binding entry is given as “binds”.
